Assay [1] has as its target T1, SmD3::HA (transgenic UAS-SmD3::3xHA) (Drosophila melanogaster) (UniProt O44437).
T1 sequence: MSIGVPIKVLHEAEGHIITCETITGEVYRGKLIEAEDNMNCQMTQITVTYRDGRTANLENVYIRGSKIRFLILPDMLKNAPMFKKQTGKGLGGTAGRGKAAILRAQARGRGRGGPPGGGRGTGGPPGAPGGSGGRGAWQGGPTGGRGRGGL
Briefly: co-IP; SmD3::HA precipitated with anti-HA antibody-coupled magnetic beads from wing imaginal disc lysates; endogenous Prp8 and Ecd detected by western blot; compared: ecd RNAi, prp8 RNAi, Prp8 overexpression, RNase A treatment of the lysate; control: discs expressing RFP only.

Chains of the proteins cited; added tags and fusions are not shown.
UniProt Q24297: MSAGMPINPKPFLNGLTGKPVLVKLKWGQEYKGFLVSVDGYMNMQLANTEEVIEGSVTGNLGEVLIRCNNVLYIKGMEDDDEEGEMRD

Assay [2] concerns the target T2, Flag::SmD3 (Drosophila melanogaster) (UniProt O44437).
T2 sequence: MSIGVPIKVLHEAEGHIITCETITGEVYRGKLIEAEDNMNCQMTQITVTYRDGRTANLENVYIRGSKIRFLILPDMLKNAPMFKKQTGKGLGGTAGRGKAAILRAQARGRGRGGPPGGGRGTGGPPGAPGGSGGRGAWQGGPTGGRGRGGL
Kind of assay: co-IP; lysates of transfected Drosophila S2 cells; proteins pulled down by anti-Flag magnetic beads (Flag::SmD3 as bait), overnight at 4°C, five washes in lysis buffer with 150-250 mM NaCl; western blot. (In general: Immunoblotting shows a protein as a band on a membrane.)

Assay [3] has as its target tagged SmF (Drosophila melanogaster) (UniProt Q24297). The description is as above.

The results in this text go back to publication PMC7897482.

These are yes or no findings as the source states them, for the method shown. In cells and extracts the contact can be indirect. Some binding calls cover weakened binding; strength is not graded here. Where a sequence is shown, tags or fusion partners need not be part of it.

B1: endogenous Ecd (wing imaginal discs) (protein, UniProt Q9W032 1-684)
chain: MSKIPGSNLEFVREEDFVEYYIFPKIPDNVQDEGALRKLMLQIRNEISAIVREKSLERSYLWHKDEFQLQVRLGGAEERLLNEETNPEEEAELGDLPPHFHGVTHYGDNISDEWFVVYLLTEITRARGDCIARVSDSDGEFLLIEAADALPDWASPETCEQRVYLVGGHLQLLQNSAASSQDKPLTMAMAVQRIRMNPTLYRCSQEIQSCIDARLKEYQIAQPHFSIHRQVLELPHSAAQLLKQKPRLLSSAVRAFCERDSLDIKALRTMRYFPPEATRVRTNVRFTRCLYAMLSHQQYLPEKRLGWHLTDPVSEPERYKEQLLGLKLASGLEILATQAKRVEGQQLEDLPAWRSYLRSLLSKGYFRDNIEGSAEYQELLNKAKVYFRGNQERFRTASRAGAEILDLLLHPAEAASEELRDEENNLQPSDSDEWLNISAEDLDSMLQDRYGPKKLYKPNGQMNAEEFTKQLAEFLDRQSNYEGIEHRGLEEPELDSDDDEPPPQANGSTGLTAKVKKNPSMRKACQRNSVIQPEEPDSTHVRNFLDFVIPEDNWDSTSEMSDYADEDDMESNLNALSGGGSVFPLDRQIQSYMEQMDRELAQTSVGKSFHGKKKTAPQADEDDFDDIEDFEPININVNTLRNMMDSYQSQVGGAGPVSNLFSAMGVGMSAVEDKEQKDISESAV
Consider B1, for which the binding result in assay [1] is reported as “binds”.

B2: Myc::Ecd^wt (Ecdysoneless, wild type) (protein, UniProt Q9W032 1-684)
chain: MSKIPGSNLEFVREEDFVEYYIFPKIPDNVQDEGALRKLMLQIRNEISAIVREKSLERSYLWHKDEFQLQVRLGGAEERLLNEETNPEEEAELGDLPPHFHGVTHYGDNISDEWFVVYLLTEITRARGDCIARVSDSDGEFLLIEAADALPDWASPETCEQRVYLVGGHLQLLQNSAASSQDKPLTMAMAVQRIRMNPTLYRCSQEIQSCIDARLKEYQIAQPHFSIHRQVLELPHSAAQLLKQKPRLLSSAVRAFCERDSLDIKALRTMRYFPPEATRVRTNVRFTRCLYAMLSHQQYLPEKRLGWHLTDPVSEPERYKEQLLGLKLASGLEILATQAKRVEGQQLEDLPAWRSYLRSLLSKGYFRDNIEGSAEYQELLNKAKVYFRGNQERFRTASRAGAEILDLLLHPAEAASEELRDEENNLQPSDSDEWLNISAEDLDSMLQDRYGPKKLYKPNGQMNAEEFTKQLAEFLDRQSNYEGIEHRGLEEPELDSDDDEPPPQANGSTGLTAKVKKNPSMRKACQRNSVIQPEEPDSTHVRNFLDFVIPEDNWDSTSEMSDYADEDDMESNLNALSGGGSVFPLDRQIQSYMEQMDRELAQTSVGKSFHGKKKTAPQADEDDFDDIEDFEPININVNTLRNMMDSYQSQVGGAGPVSNLFSAMGVGMSAVEDKEQKDISESAV
For B2, the binding entry in assay [2] is on record as “binds”; in assay [3], “no binding”.
